These are yes or no findings as the source states them, for the method shown. In cells and extracts the contact can be indirect. Here binding means that the protein was enriched with, or labelled near, the bait; the list need not be complete.

Chains of the proteins cited; added tags and fusions are not shown.
UniProt P63172: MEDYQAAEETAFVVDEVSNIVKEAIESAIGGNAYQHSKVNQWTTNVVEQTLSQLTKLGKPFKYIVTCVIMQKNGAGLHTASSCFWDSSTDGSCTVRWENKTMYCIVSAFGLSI
UniProt P07355: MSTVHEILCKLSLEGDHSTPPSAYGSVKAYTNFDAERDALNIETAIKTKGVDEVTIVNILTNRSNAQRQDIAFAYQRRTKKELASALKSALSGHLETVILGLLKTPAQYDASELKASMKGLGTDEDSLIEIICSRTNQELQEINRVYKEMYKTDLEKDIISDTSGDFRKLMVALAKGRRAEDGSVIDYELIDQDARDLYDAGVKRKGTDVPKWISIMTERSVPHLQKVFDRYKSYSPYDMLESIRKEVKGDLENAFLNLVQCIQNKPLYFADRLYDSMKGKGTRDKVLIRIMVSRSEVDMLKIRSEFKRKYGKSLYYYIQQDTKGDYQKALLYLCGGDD

The assay addresses Tctex-1-GFP fusion (UniProt P63172). As to the kind of experiment: affinity purification with mass spectrometry; GFP immunoprecipitates from RPE-1 cells stably expressing Tctex-1-GFP, 2 h post-serum readdition; proteomics.

As to “annexin A2 isoform 2 (from UniProt P07355 1-339)”, the binding entry is “binds”.

For the origin of these results see article PMC10509483.
